# From the supplement of paper PMC5407854, “Inhibitor of ppGalNAc-T3-mediated O-glycosylation blocks cancer cell invasiveness and lowers FGF23 levels” (eLife, 2017)
# The list shows a part of the results. Small differences around the control level are noise.
# Key:
# ppGalNAc-T3 sensor = assay: T3 sensor activation Q score (MG/GFP ratio z-score vs DMSO controls) (SD units); higher = more sensor activation (inhibition of ppGalNAc-T3 glycosylation); details: HEK293 sensor cells; 10 µM; 6 h
# Description: (§1)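 Cells were treated with compound at 10 uM for 6 h, then MG/GFP ratio was read by flow cytometry (10,000 cells per well, duplicate wells). Q = (R - R_neg)/SD_neg relative to DMSO vehicle controls; the signal rises when the glycosyltransferase is inhibited.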
# ppGalNAc-T2 sensor = assay: T2 sensor activation Q score (MG/GFP ratio z-score vs DMSO controls) (SD units); higher = more sensor activation (inhibition of ppGalNAc-T2 glycosylation); details: HEK293 sensor cells; 10 µM; 6 h
# Description: as §1
SMILES,T3 sensor activation Q score (ppGalNAc-T3 sensor),T2 sensor activation Q score (ppGalNAc-T2 sensor)
Cc1ccc(NC(=O)c2ccc([N+](=O)[O-])o2)cc1,-0.075,-0.64
CNC(=O)N1c2ccccc2CCc2ccccc21,-0.41,-0.315
Cc1ccc(C)c(C(=O)c2ccccc2C(=O)O)c1,0.27,-0.6
Nn1cnc2scc(-c3ccccc3)c2c1=O,0.415,0.08
O=C(O)c1cc(S(=O)(=O)N2CCCCC2)ccc1Br,0.05,-0.69
CC1(C)Cc2ccccc2-c2nc3n(c(=O)c21)CCS3,-0.33,-0.36
COc1cc2c(cc1OC)CN(Cc1ccc(Cl)cc1)CC2,-0.58,0.24
Fc1ccccc1CN1CCN(c2ccccn2)CC1,0.325,-0.78
Cc1ccc2oc(-c3cccc(NC(=O)c4ccccc4)c3)nc2c1,0.495,1
Cc1cccc(-c2nnc(-c3cccc(C)c3)o2)c1,-0.89,-0.965
O=[N+]([O-])c1cccc(CN2CCCC(O)C2)c1 (stereo unspecified),0.375,-0.275
CC(O)C#CC1(C)CCCC(C)(C)O1 (stereo unspecified),0.49,0.03
CN1CCN(C/C=C/c2ccc(N(C)C)cc2)CC1,0,0.72
c1ccc(OCCCN2CCCCC2)cc1,-0.215,-0.295
COc1cccc(Nc2ccccc2C)c1,-0.385,-0.44
COc1cccc(OC)c1C(=O)N1CCCCC1,-0.33,-0.91
CCCC1(O)CC(c2ccccc2)NC(c2ccccc2)C1C (stereo unspecified),-0.015,-0.945
CCN(C(=O)Cc1ccc(Cl)cc1)c1ccccc1C,-0.13,-0.11
CCCCNS(=O)(=O)c1ccccc1,-0.015,-0.72
O=C(Nc1ccc(F)cc1F)c1cccs1,0,-0.275

# Pulled by compound from above:
SMILES,T3 sensor activation Q score (ppGalNAc-T3 sensor),T2 sensor activation Q score (ppGalNAc-T2 sensor)
COc1cccc(OC)c1C(=O)N1CCCCC1,-0.33,-0.91
Cc1cccc(-c2nnc(-c3cccc(C)c3)o2)c1,-0.89,-0.965
Cc1ccc(NC(=O)c2ccc([N+](=O)[O-])o2)cc1,-0.075,-0.64
CNC(=O)N1c2ccccc2CCc2ccccc21,-0.41,-0.315

# More results follow:

SMILES,T3 sensor activation Q score (ppGalNAc-T3 sensor),T2 sensor activation Q score (ppGalNAc-T2 sensor)
NC(=O)c1ccc(C(N)=O)cc1,2.05,0.035
Cc1ccc(NCc2ccc([N+](=O)[O-])s2)cc1,-0.11,0.805
O=C(C1CCCO1)N1CCN(Cc2ccc3c(c2)OCO3)CC1 (stereo unspecified),-0.325,-0.115
O=[N+]([O-])c1ccccc1/C=C/CN1CCN(c2ccccc2F)CC1,0.525,-0.53
COc1ccccc1NC(=O)CC1Sc2ccccc2NC1=O (stereo unspecified),-1.25,-0.24
Cc1ccc(NC(=O)C2CCC(C)(C(=O)O)C2(C)C)cc1 (stereo unspecified),-1.5,-1.81
CC(=Nc1ccccc1)C1=C(O)CC(C)(C)CC1=O,-0.395,0.35
CCOc1ccccc1CN1CCN(c2ccccn2)CC1,-0.425,-0.19
CC(=O)c1cc(F)c(N2CCN(C(=O)c3ccccc3F)CC2)cc1C,0.12,-0.19
COc1ccc(C(=O)N2CCCC2)cc1OC,0.235,0.075
COc1ccccc1C(=O)Nc1ccc(C(=O)O)cc1,-0.98,-1.23
CCNc1nc(NC(C)C)nc(N2CCCC2)n1,-0.555,0.39
O=C(O)C(F)(F)C12OC3C4C5CC(C6C5C3C61)C42 (stereo unspecified),0.365,0.73
Nc1nnc(-c2ccc(Br)cc2)s1,0.18,-0.105
CCOc1ccccc1NC(=O)c1ccccc1C,1.49,-1.01
CC1CC(Nc2ccccc2)c2ccccc2N1C(=O)Cc1ccccc1 (stereo unspecified),-0.88,-1.56
Cc1cccc(NC(=O)CCCC(=O)O)c1,-0.265,-0.7
COc1ccc(C(=O)Nc2ccccc2)cc1N,-0.265,0.73
CCN(CC)C(=O)C1CCCN(Cc2ccc(F)cc2F)C1 (stereo unspecified),0.15,-0.18
CC(=O)N1C(=O)C(=O)c2ccccc21,0.85,0.04

SMILES,T3 sensor activation Q score (ppGalNAc-T3 sensor),T2 sensor activation Q score (ppGalNAc-T2 sensor)
COc1ccc(CN2CCN(c3ccc(Cl)cc3)CC2)c(OC)c1OC,0.375,0.275
CN(C)c1ccc(C2C(=C(O)c3ccccc3)C(=O)C(=O)N2C)cc1 (stereo unspecified),0.26,-0.38
CC(=O)c1cccc(NC(=O)COc2ccc(Cl)cc2)c1,0.58,-1.13
Cc1nc(NN)c2c3c(sc2n1)CCC3,1,-0.365
Cc1cc(C)n(-c2nncn2N)n1,-0.71,0.695
Cc1nc2sc(C(=O)c3ccccc3)c(N)c2c(C)c1C,-0.795,-0.08
CCN(CC)C(=O)COc1ccc(Br)cc1Cl,0.425,0.02
O=C(Nc1ccc(Cl)cc1)c1ccc([N+](=O)[O-])o1,-0.815,-1.14
CCCC(O)=C1C(=O)CC(C)(C)CC1=Nc1cccc([N+](=O)[O-])c1,-0.87,-0.015
CCN1CCN(C2CC(=O)N(c3cccc(Cl)c3)C2=O)CC1 (stereo unspecified),-0.62,-0.87
CCOc1cccc(N2C(=O)CC(N3CCN(CC)CC3)C2=O)c1 (stereo unspecified),0.645,-0.18
O=C(O)CCCNC1=NCCC1,0.37,0.185
O=C1NC(c2ccc(Br)cc2)C(=C(O)c2ccccc2)C1=O (stereo unspecified),0.46,-0.18
CC(=O)c1ccc(NC(=O)c2cccs2)cc1,0.13,-0.23
COc1ccccc1Nc1nc(-c2ccc(F)cc2)cs1,0.36,-0.95
CCOc1cc(CN(C)CCN(C)C)ccc1O,-0.25,0.315
O=S(=O)(Nc1cccc(O)c1)c1ccc(Cl)cc1,0.17,0.22
CCCCC1CCC(C(=O)NN)CC1 (stereo unspecified),0.01,-0.035
